Laboratory results taken from patent US20120207760A1.
No constants are given. Whether binding was seen depends on the method and setting. Some entries that bind do so weakly or less than the wild type.

By UniProt entry, the sequences of proteins in these tests, tags left out.
UniProt P06821, whole entry: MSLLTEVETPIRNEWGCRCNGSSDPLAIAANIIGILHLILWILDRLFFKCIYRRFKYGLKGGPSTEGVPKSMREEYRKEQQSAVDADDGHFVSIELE

Tests used:
[1] = target: M2 protein of A/Puerto Rico/8/34 (H1N1), on virus particles, infected MDCK cells or transfected cells (influenza A virus A/Puerto Rico/8/34 (H1N1)) (UniProt P06821); assay: ELISA on purified A/Puerto Rico/8/34 virus coated at 10 ug/ml (FIG. 14A)
[2] = target: M2 protein of A/Puerto Rico/8/34 (H1N1), on virus particles, infected MDCK cells or transfected cells (influenza A virus A/Puerto Rico/8/34 (H1N1)) (UniProt P06821); assay: ELISA on PR8 virus, crude supernatant
[3] = target: M2 protein of A/Puerto Rico/8/34 (H1N1), on virus particles, infected MDCK cells or transfected cells (influenza A virus A/Puerto Rico/8/34 (H1N1)) (UniProt P06821); assay: binding to MDCK cells infected with PR8 virus (FIG. 10)
[4] = target: M2 protein of A/Puerto Rico/8/34 (H1N1), on virus particles, infected MDCK cells or transfected cells (influenza A virus A/Puerto Rico/8/34 (H1N1)) (UniProt P06821); assay: FMAT on MDCK cells infected with A/PR/8/32, crude supernatant (FIG. 10)
[5] = target: M2 protein of A/Puerto Rico/8/34 (H1N1), on virus particles, infected MDCK cells or transfected cells (influenza A virus A/Puerto Rico/8/34 (H1N1)) (UniProt P06821); assay: ELISA on influenza virus, crude supernatant (FIG. 9)
[6] = target: M2 protein of A/Puerto Rico/8/34 (H1N1), on virus particles, infected MDCK cells or transfected cells (influenza A virus A/Puerto Rico/8/34 (H1N1)) (UniProt P06821); assay: flow cytometry on MDCK cells infected with A/Puerto Rico/8/34 (FIG. 14C)
[7] = target: M2 protein of A/Puerto Rico/8/34 (H1N1), on virus particles, infected MDCK cells or transfected cells (influenza A virus A/Puerto Rico/8/34 (H1N1)) (UniProt P06821); assay: flow cytometry on infected MDCK cells (FIG. 14c)

Measured: binding

B1: TCN-031 (23K12) (antibody, V domains shown)
VH: EVQLVESGGGLVQPGGSLRISCAASGFTVSSNYMSWVRQAPGKGLEWVSVIYSGGSTYYADSVKGRFSFSRDNSKNTVFLQMNSLRAEDTAVYYCARCLSRMRGYGLDVWGQGTTVTVSS
VL: DIQMTQSPSSLSASVGDRVTITCRTSQSISSYLNWYQQKPGKAPKLLIYAASSLQSGVPSRFSGSGSGTDFTLTISGLQPEDFATYYCQQSYSMPAFGQGTKLEIK
binds: [1] | [2] | [3] | [4] | [5] | [6] | [7]
